From article PMC6817842
These are yes or no findings as the source states them, for the method shown. In cells and extracts the contact can be indirect. Some results given as binding are weak or reduced against the parent protein; the word gives no strength.

Protein sequences, listed by entry. Tags and fused reporters are not part of them.
UniProt P42582: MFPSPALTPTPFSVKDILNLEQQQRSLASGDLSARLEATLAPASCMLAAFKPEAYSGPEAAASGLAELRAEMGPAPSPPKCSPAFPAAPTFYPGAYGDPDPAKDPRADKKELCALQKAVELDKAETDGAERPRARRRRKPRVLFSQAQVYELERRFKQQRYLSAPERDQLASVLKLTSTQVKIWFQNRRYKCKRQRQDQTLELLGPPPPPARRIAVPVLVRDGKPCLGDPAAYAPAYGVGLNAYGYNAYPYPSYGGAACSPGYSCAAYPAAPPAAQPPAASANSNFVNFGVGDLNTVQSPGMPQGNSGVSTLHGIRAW
UniProt P30051: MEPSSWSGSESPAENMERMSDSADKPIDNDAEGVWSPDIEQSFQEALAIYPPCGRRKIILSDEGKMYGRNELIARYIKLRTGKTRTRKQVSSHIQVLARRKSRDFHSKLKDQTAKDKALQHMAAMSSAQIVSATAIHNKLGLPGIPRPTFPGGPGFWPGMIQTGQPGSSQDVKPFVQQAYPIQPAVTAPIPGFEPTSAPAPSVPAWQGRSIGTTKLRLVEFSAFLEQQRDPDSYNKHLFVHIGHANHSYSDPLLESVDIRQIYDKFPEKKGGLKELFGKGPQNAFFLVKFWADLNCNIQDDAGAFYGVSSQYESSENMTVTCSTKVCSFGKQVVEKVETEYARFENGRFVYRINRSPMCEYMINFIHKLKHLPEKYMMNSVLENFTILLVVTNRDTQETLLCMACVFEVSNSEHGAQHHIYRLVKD
UniProt Q8CFN5: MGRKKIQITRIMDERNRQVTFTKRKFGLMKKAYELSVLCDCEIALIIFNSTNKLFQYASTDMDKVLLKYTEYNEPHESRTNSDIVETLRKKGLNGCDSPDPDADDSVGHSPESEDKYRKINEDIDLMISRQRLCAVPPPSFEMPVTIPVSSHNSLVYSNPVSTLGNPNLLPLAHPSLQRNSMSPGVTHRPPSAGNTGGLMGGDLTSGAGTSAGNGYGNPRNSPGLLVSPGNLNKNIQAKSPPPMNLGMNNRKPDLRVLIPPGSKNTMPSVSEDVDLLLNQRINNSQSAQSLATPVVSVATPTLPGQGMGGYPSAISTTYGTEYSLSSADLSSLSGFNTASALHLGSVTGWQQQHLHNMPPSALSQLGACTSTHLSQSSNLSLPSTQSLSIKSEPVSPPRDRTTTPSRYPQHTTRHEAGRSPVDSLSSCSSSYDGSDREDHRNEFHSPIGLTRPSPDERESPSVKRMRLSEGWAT

Assays:
[1] = target: NKX2-5^fb (NKX2-5 with C-terminal FLAG and biotin acceptor peptide, knock-in allele) (mouse) (UniProt P42582); assay: pull-down; biotinylated knock-in TF captured on M280 streptavidin Dynabeads from 150 µg embryonic heart lysate in RIPA buffer, 4 h at 4 °C; beads washed with cold PBS; partners detected by capillary electrophoresis immunoassay (ProteinSimple Wes); called CoIP in the methods
[2] = target: TEAD1^fb (TEAD1 with C-terminal FLAG and biotin acceptor peptide, knock-in allele) (mouse) (UniProt P30051); assay: as above

| Substance | binding [1] | binding [2] |
| --- | --- | --- |
| MEF2C (endogenous) (from UniProt Q8CFN5 1-474) | binds | binds |
| NKX2-5 (endogenous) (from UniProt P42582 1-318) |  | binds |
